Data as given in PubChem BioAssay AID1508597 (Cure First, 2020).
This is an unselected part of the about 2,100 reagents, in one setting of the screen. 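Calls flag viability under 80% in either arm, not effects specific to rucaparib; the reference for percent is not stated.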 A reagent listed more than once was tested more than once; the source does not tell the runs apart. Not stated in the record: the 100% reference.

Assay: 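Survival screen with siRNA in ovarian cancer cells derived from patients, with or without rucaparib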 (primary screen)
System: human ovarian carcinoma lines grown from tumours: OCI-P5x (papillary serous) and OCI-C5x (clear cell)
Knock-down reagent: siRNA pool against human genes, 1.25 pmol siRNA per well
Time to read-out: 72 h or 96 h, depending on the cell culture
Conditions: rucaparib 20 µM (about IC30) or vehicle, present until read-out
Rucaparib or vehicle: Vehicle
Cell line: OCI-P5x (serous)
Detection: 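ATP luminescence measured at 72 or 96 h according to the culture, then normalised and expressed as percent viability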
Scale: viability, normalised: higher = more viable cells remaining
Rule for the call: 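Active when normalised viability falls below 80 percent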
Calls: active = viability under 80%; inactive = viability 80% or more

The opening 3 records, to show the layout:
no.	gene	technical replicate	viability, normalised (%)	Call
1	AFF3 (ALF transcription elongation factor 3)	1	53.5	active
2	AFF3 (ALF transcription elongation factor 3)	2	59.5	active
3	AFF3 (ALF transcription elongation factor 3)	3	77.5	active

Results, from the first entry:
no.	gene	technical replicate	viability, normalised (%)	Call
1	AFF3 (ALF transcription elongation factor 3)	1	53.5	active
2	AFF3 (ALF transcription elongation factor 3)	2	59.5	active
3	AFF3 (ALF transcription elongation factor 3)	3	77.5	active
4	PRDM14 (PR/SET domain 14)	1	37.8	active
5	PRDM14 (PR/SET domain 14)	2	48.6	active
6	PRDM14 (PR/SET domain 14)	3	64.2	active
7	DRD3 (dopamine receptor D3)	1	42.5	active
8	DRD3 (dopamine receptor D3)	2	51.9	active
9	DRD3 (dopamine receptor D3)	3	44.9	active
10	UPF1 (UPF1 RNA helicase and ATPase)	1	65.1	active
11	UPF1 (UPF1 RNA helicase and ATPase)	2	51.8	active
12	UPF1 (UPF1 RNA helicase and ATPase)	3	53.3	active
13	PPM1D (protein phosphatase, Mg2+/Mn2+ dependent 1D)	1	97.3	inactive
14	PPM1D (protein phosphatase, Mg2+/Mn2+ dependent 1D)	2	82.4	inactive
15	PPM1D (protein phosphatase, Mg2+/Mn2+ dependent 1D)	3	106	inactive
16	CHD5 (chromodomain helicase DNA binding protein 5)	1	65.4	active
17	CHD5 (chromodomain helicase DNA binding protein 5)	2	77.9	active
18	CHD5 (chromodomain helicase DNA binding protein 5)	3	54.4	active
19	ZCWPW2 (zinc finger CW-type and PWWP domain containing 2)	1	45.6	active
20	ZCWPW2 (zinc finger CW-type and PWWP domain containing 2)	2	52.5	active
21	ZCWPW2 (zinc finger CW-type and PWWP domain containing 2)	3	57.8	active
22	SLIT1 (slit guidance ligand 1)	1	61.5	active
23	SLIT1 (slit guidance ligand 1)	2	66.3	active
24	SLIT1 (slit guidance ligand 1)	3	83.2	inactive
25	SAFB (scaffold attachment factor B)	1	70.6	active
26	SAFB (scaffold attachment factor B)	2	61.1	active
27	SAFB (scaffold attachment factor B)	3	80.3	inactive
28	TDP1 (tyrosyl-DNA phosphodiesterase 1)	1	75.8	active
29	TDP1 (tyrosyl-DNA phosphodiesterase 1)	1	114	inactive
30	TDP1 (tyrosyl-DNA phosphodiesterase 1)	2	129	inactive
31	TDP1 (tyrosyl-DNA phosphodiesterase 1)	2	64.3	active
32	TDP1 (tyrosyl-DNA phosphodiesterase 1)	3	76.5	active
33	TDP1 (tyrosyl-DNA phosphodiesterase 1)	3	124	inactive
34	DDX21 (DExD-box helicase 21)	1	81.4	inactive
35	DDX21 (DExD-box helicase 21)	1	64.3	active
36	DDX21 (DExD-box helicase 21)	2	65.6	active
37	DDX21 (DExD-box helicase 21)	2	83.5	inactive
38	DDX21 (DExD-box helicase 21)	3	77.7	active
39	DDX21 (DExD-box helicase 21)	3	64.6	active
40	FLT3 (fms related receptor tyrosine kinase 3)	1	76	active
41	FLT3 (fms related receptor tyrosine kinase 3)	2	49	active
42	FLT3 (fms related receptor tyrosine kinase 3)	3	61.5	active
43	PLK4 (polo like kinase 4)	1	80.7	inactive
44	PLK4 (polo like kinase 4)	2	78	active
45	PLK4 (polo like kinase 4)	3	70.9	active
46	HDAC2 (histone deacetylase 2)	1	59.8	active
47	HDAC2 (histone deacetylase 2)	1	75.6	active
48	HDAC2 (histone deacetylase 2)	2	71.3	active
49	HDAC2 (histone deacetylase 2)	2	74.7	active
50	HDAC2 (histone deacetylase 2)	3	67.8	active
51	HDAC2 (histone deacetylase 2)	3	66.7	active
52	CAMK2D (calcium/calmodulin dependent protein kinase II delta)	1	78.4	active
53	CAMK2D (calcium/calmodulin dependent protein kinase II delta)	1	80.5	inactive
54	CAMK2D (calcium/calmodulin dependent protein kinase II delta)	2	95	inactive
55	CAMK2D (calcium/calmodulin dependent protein kinase II delta)	2	78.1	active
56	CAMK2D (calcium/calmodulin dependent protein kinase II delta)	3	92	inactive
57	CAMK2D (calcium/calmodulin dependent protein kinase II delta)	3	80.7	inactive
58	GADD45A (growth arrest and DNA damage inducible alpha)	1	90.1	inactive
59	GADD45A (growth arrest and DNA damage inducible alpha)	2	109	inactive
60	GADD45A (growth arrest and DNA damage inducible alpha)	3	72.5	active
61	AGO4 (argonaute RISC component 4)	1	60.6	active
62	AGO4 (argonaute RISC component 4)	2	59.8	active
63	AGO4 (argonaute RISC component 4)	3	46.6	active
64	MED12 (mediator complex subunit 12)	1	58.2	active
65	MED12 (mediator complex subunit 12)	2	67.4	active
66	MED12 (mediator complex subunit 12)	3	51.8	active
67	SMARCC1 (SWI/SNF related BAF chromatin remodeling complex subunit C1)	1	54.7	active
68	SMARCC1 (SWI/SNF related BAF chromatin remodeling complex subunit C1)	2	67.8	active
69	SMARCC1 (SWI/SNF related BAF chromatin remodeling complex subunit C1)	3	66.4	active
70	MED22 (mediator complex subunit 22)	1	64.4	active
71	MED22 (mediator complex subunit 22)	2	82.8	inactive
72	MED22 (mediator complex subunit 22)	3	80.4	inactive
73	POLE2 (DNA polymerase epsilon 2, accessory subunit)	1	58.4	active
74	POLE2 (DNA polymerase epsilon 2, accessory subunit)	2	32.3	active
75	POLE2 (DNA polymerase epsilon 2, accessory subunit)	3	48	active
